Measurements: patent US6716829B2, “Aldosterone antagonist and cyclooxygenase-2 inhibitor combination therapy to prevent or treat inflammation-related cardiovascular disorders” (Pharmacia Corporation, priority 2000, dated 2004)

Test: Assay C: body weight, left and right ventricle weight, tibia length (myocardial hypertrophy)
Type: in vivo, Male Sprague-Dawley rats
Settings: for Tibia Length (cm): mean ± SEM after 30 days of treatment, eplerenone dose 100 mg/kg/day
Protocol: The procedure of Assay B was expanded upon in a further study. […] Myocardial tissue from animals in each treatment group was examined after 7, 14, or 30 days of treatment.
Male Sprague-Dawley rats, weighing 230 to 250 g, (Harlan Sprague-Dawley Industries, Indianapolis, IN) were housed in a room 12-hours light/12-hours dark daily cycle at an ambient temperature of 22±1° C. (n=96). Animals were allowed one week to adjust after arrival and had free access to TEKLAD 22/5 rodent diet (Harlan TEKLAD, Madison, Wis.) and tap water until the initiation of the experiment.
Potassium chloride supplementation was added to the saline solution in order to prevent the potential hypokalemia associated with aldosterone excess.
At the time of the surgery, an Alzet 2002 osmotic minipump (Alza Corp., Palo Alto, Calif.) containing either vehicle (9% ethanol/87% propylene glycol/4% dH2O) or 1.0 mg/mL d-aldosterone (Sigma Chemical, St. Louis, Mo.) was inserted subcutaneously at the nape of the neck. Aldosterone was administered at a dose of 0.75 µg/hour. […] Animals were sacrificed from each group (n=8-13) after 7, 14, or 30 days of treatment.
Animals to be sacrificed after 7 or 14 days of treatment were uninephrectomized and implanted with an Alzet minipump. Animals treated for 30 days were uninephrectomized, fitted for Alzet minipumps, and implanted with radio telemetry units (model #TA11PA-C40, Data Sciences Inc., St. Paul, Minn.) according to the following procedure. Animals were anesthetized with 5% isoflurane (SOLVAY Animal Health Inc., Mendota Heights, Minn.), which was delivered in O2 using a VMS anesthesia instrument (Matrix Medical, Inc., Orchard Park, N.Y.). Anesthesia was maintained with 1-2% isoflurane throughout the surgical procedure. The surgery site was clipped, scrubbed with nolvasan, and sprayed with betadine. A rostral-caudal incision was made through the skin from the base of the rib cage to the pubic region using a #11 scalpel blade. A second incision was made through the muscles of the abdominal wall to expose the peritoneal cavity. The […], renal artery and vein of the left kidney were isolated, tied off with 4-0 silk, and the kidney excised and discarded. Organs were carefully displaced with tissue retractors in order to expose the abdominal aorta. A 1.5 cm segment just rostral to the bifurcation of the abdominal aorta into the iliac arteries was cleared of excessive connective tissue and 4-0 silk was used to make an anchor adjacent to the aorta. A microvascular clip was then placed at both ends of the cleaned region to stop excessive blood flow. Using a bent, 21 gauge needle, the abdominal aorta was penetrated. The cannula of the radio telemetry unit was inserted and stabilized in the aorta using the 4-0 silk anchor. Organs were repositioned and the telemetry unit was placed over the organs. Using a non-interrupted suture pattern with 4-0 silk, the abdominal wall was closed, and the skin was subsequently closed using a 4-0 silk in an interrupted suture pattern. Animals were injected around the sutures with 100 μL of the anesthetic Marcaine HCl (Sanofi Winthrop Pharmaceuticals, New York, N.Y.) and given an injection (i.m.) of the antibiotic Mandol (Eli Lilly & Co., Indianapolis, Ind.). Post-operative care included monitoring the animals on a heating pad during recovery from anesthesia until sternal recumbency was reestablished. Animals were monitored daily for signs of distress and infection at the surgical site. Animals displaying continued discomfort after surgery were treated with 0.1-0.5 mg/kg, s.c. Buphrenorphine (Rickett & Colman Pharmaceuticals, Inc. Richmond, Va.). Animals were then placed on tap water and TEKLAD 22/5 rodent diet (Harlan TEKLAD, Madison, Wis.).

[1] = 14-day protocol, individual rats and group Mean, listed as Aldosterone + salt
[2] = 30-day protocol, individual rats and group Mean, listed as Aldosterone + salt
[3] = individual rats and group mean, 7 days of treatment, aldosterone + salt, eplerenone 100 mg/kg/day
[4] = mean ± SEM after 7 days of treatment, aldosterone + salt, eplerenone 100 mg/kg/day
[5] = mean ± SEM after 14 days of treatment, aldosterone + salt, eplerenone 100 mg/kg/day
[6] = 14-day protocol, individual rats and group Mean, listed as Eplerenone + aldosterone + salt
[7] = 30-day protocol, individual rats and group Mean, listed as Eplerenone + aldosterone + salt

Row | Compound | Final Body Weight [1] | Tibia Length [1] | Final Body Weight [2] | Tibia Length [2] | Tibia Length [3] | Tibia Length [4] [cm] | Tibia Length [5] [cm] | Tibia Length (cm) | Final Body Weight [6] | Tibia Length [6] | Final Body Weight [7] | Tibia Length [7]
1 | C[C@]12CCC(=O)C=C1CC[C@@H]1[C@@H]2[C@@H](O)C[C@]2(C=O)[C@@H](C(=O)CO)CC[C@@H]12 [Aldosterone] | 298 g and 261 g and 307 g (2×) and 242 g and 279 g and 308 g and 290 g and 264 g and 275 g and 193 g and 215 g and 270 g and 235 g | 3.8 cm (6×) and 3.9 cm (5×) and 3.80 cm and 3.7 cm and 3.6 cm | 289 g (2×) and 219 g and 282 g and 290 g and 267 g and 319 g and 263 g and 234 g and 272 g | 4.0 cm (2×) and 3.8 cm (2×) and 3.9 cm (6×) | 3.8 cm (5×) and 3.6 cm and 3.9 cm (3×) and 3.7 cm | 3.8 ± 0.03 | 3.8 ± 0.02 | 3.9 ± 0.02 | – | – | – | –
2 | COC(=O)[C@@H]1CC2=CC(=O)CC[C@]2(C)[C@@]23O[C@@H]2C[C@@]2(C)[C@@H](CC[C@@]24CCC(=O)O4)[C@H]13 [Eplerenone] | – | – | – | – | 3.9 cm and 3.8 cm (9×) and 3.7 cm | 3.8 ± 0.01 | 3.8 ± 0.02 | 3.9 ± 0.00 | 268 g and 267 g and 247 g and 291 g and 264 g and 302 g | 3.8 cm (8×) and 3.9 cm (2×) and 3.7 cm (2×) | 310 g and 343 g and 334 g and 299 g and 361 g and 351 g and 316 g and 352 g and 317 g and 331 g | 3.9 cm (9×) and 4.1 cm and 4.0 cm

“And” between values parts separate entries of the source, which are not always exact repeats. Identical values can stand only once.
